Experimental findings from PMC8817118 are described below.

Protein sequences, listed by entry. Tags and fused reporters are not part of them. Residues count along the entry.
UniProt O00206, residues 24-839: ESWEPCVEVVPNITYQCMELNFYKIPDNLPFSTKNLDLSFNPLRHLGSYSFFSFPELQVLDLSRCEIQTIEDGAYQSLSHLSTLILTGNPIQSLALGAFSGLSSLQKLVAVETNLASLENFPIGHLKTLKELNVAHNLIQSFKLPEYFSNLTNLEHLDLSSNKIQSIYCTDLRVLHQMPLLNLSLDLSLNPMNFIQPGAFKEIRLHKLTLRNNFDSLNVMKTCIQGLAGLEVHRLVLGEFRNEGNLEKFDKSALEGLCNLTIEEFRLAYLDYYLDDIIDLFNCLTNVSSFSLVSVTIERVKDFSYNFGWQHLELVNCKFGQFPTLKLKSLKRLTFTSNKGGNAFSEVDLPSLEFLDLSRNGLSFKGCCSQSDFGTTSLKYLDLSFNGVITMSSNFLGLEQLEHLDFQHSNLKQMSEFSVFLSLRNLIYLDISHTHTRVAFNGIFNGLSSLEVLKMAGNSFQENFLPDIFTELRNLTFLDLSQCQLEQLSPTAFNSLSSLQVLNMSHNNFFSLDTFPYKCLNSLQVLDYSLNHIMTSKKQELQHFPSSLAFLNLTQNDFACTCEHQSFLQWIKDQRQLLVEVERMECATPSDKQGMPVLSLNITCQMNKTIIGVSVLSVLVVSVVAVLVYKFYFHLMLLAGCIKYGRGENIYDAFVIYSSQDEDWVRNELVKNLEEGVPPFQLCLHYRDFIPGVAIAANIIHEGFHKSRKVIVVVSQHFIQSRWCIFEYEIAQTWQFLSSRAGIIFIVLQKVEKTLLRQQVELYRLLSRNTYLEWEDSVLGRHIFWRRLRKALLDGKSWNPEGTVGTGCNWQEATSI

Results are given in words; binding and its absence hold for the method and conditions named. Binding seen in cells or lysates may run through a third protein. Some binding calls cover weakened binding; strength is not graded here.

This test concerns the target toll-like receptor 4 (human (endogenous in primary osteoarthritic chondrocytes)) (UniProt O00206). Briefly: co-IP; RIPA lysate of human primary osteoarthritic chondrocytes (control, 500 uM palmitate (PA), or PA after Ssn B pretreatment); anti-TLR4 antibody 1 h, magnetic beads at 4 °C overnight, four washes with ice-cold PBS; MD-2 detected by western blot.

B1: myeloid differentiation protein-2 (protein, UniProt Q9Y6Y9 19-160)
chain: QKQYWVCNSSDASISYTYCDKMQYPISINVNPCIELKRSKGLLHIFYIPRRDLKQLYFNLYITVNTMNLPKRKEVICRGSDDDYSFCRALKGETVNTTISFSFKGIKFSKGKYKCVVEAISGSPEEMLFCLEFVILHQPNSN
Regarding B1, the binding entry is reported as “binds”.
